The campaign covered roughly 330,000 compounds. About 7,700 (2.3%) were called active. Inconclusive results, whose numbers are uncertain, are shown with a selection of clear calls. Calls come from the whole dose curve; as a rule, active = well fitted inhibition curve with a large enough effect; inconclusive = small, poorly fitted or top-dose-only effect, or effect the other way; inactive = flat fitted curve, though single readings scatter. Potencies of inconclusive entries are doubtful fits and often do not repeat.
Experiment: qHTS screen for small molecules that inhibit ELG1-dependent DNA repair in human embryonic kidney (HEK293T) cells expressing luciferase-tagged ELG1; note: nearly all actives have a fitted effect of over 55% in size
Conditions: HEK293T ELG1-luciferase reporter, luminescence, 16 h, DNA damage induced by 5-fluorouridine; activity change, negative = inhibition: at 46.1 µM (top of the series)
Summary of the method: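 Step one: seed 2,000 cells per well. Step two: pin-transfer compound or DMSO alongside 5-fluorouridine. Step three: incubate 16 hr, 37 °C, 5% CO2. Step four: add ONE-Glo, wait 30 min, read luminescence.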
% is set by controls: 0 for no effect and ±100 for the full control effect; potency is the fitted concentration of half-maximal effect.

Structure (SMILES) | activity change, negative = inhibition | Potency
O=C(Nc1ccnn1C1CCN(Cc2ccc(C#CCCO)cc2)CC1)c1cccc(F)c1 | inactive: 1.4% | –
COc1cccc(-c2nc(CS(=O)(=O)CC(=O)NC3CCCCCC3)c(C)o2)c1 | – | inconclusive: 29.1 µM [inhibitor, single point]
O=C(NCCC1CCCCN1S(=O)(=O)c1ccccc1)C(=O)Nc1ccccc1 (stereo not drawn) | inactive: -8.82% | –
CCN(CC)S(=O)(=O)c1ccc(C(=O)N2CCc3ccccc32)cc1 | – | inconclusive: 25.9 µM [inhibitor, single point]
CC(C)c1ccc(N2C(=O)[C@@H]3Cc4ccccc4CN3C2=O)cc1 | – | inconclusive: 13 µM [activator, partial curve]
c1ccc(Cn2cc(CSc3ccccc3)nn2)cc1 | – | inconclusive: 23.1 µM [activator, partial curve]
O=C1/C(=C/c2cccs2)Sc2ccccc21 | – | inconclusive: 16.4 µM [activator, partial curve]
CN1C(=O)N(C)C2(c3ccccc3)NNC(N)=NC12c1ccccc1 (stereo not drawn) | – | inconclusive: 5.17 µM [activator, partial curve, poor fit]
Cc1cc(C)n2ncc(C(=O)Nc3cccc(O)c3)c2n1 | – | inconclusive: 29.1 µM [activator, partial curve, poor fit]
COc1cccc(-c2cc(C(=O)Nc3cc(OC)c(OC)c(OC)c3)no2)c1 | – | active: 23.1 µM
COc1cc(CC(=O)NCCc2ccc(OCc3ccccc3)cc2)c([N+](=O)[O-])cc1OC | – | inconclusive: 18.4 µM [activator, single point]
COc1ccccc1CC(=O)Nc1ccc([N+](=O)[O-])cc1O | – | inconclusive: 29.1 µM [inhibitor, single point]
O=C(Oc1cc(=O)oc2c1c(=O)n1c3c(cccc23)CC1)c1ccccc1 | – | inconclusive: 32.6 µM [inhibitor, partial curve, poor fit]
CCOc1ccc2nc(SCC(=O)Nc3cc(C)on3)c(C)cc2c1 | – | inconclusive: 29.1 µM [inhibitor, single point]
COc1cccc(N2C(=O)CC(NNc3nc4ccccc4s3)C2=O)c1 (stereo not drawn) | – | inconclusive: 25.9 µM [activator, single point]
O=C(CN(c1cccc([N+](=O)[O-])c1)S(=O)(=O)c1ccccc1)NCc1ccccc1 | – | inconclusive: 25.9 µM [inhibitor, single point]
O=C(c1ccc2oc(CCc3ccccc3)nc2c1)N1CCC(O)CC1 | – | inconclusive: 2.59 µM [activator, partial curve]
Cc1ccccc1NC(=O)NCc1ccc2c(c1)OCO2 | – | inconclusive: 20.6 µM [activator, single point]
C=CCOC(=O)C1=C[C@@H](c2coc3ccccc3c2=O)[C@H](CCCO)[C@@H](OCC)O1 | – | inconclusive: 18.3 µM [inhibitor, single point]
Cc1ccc2c(c1)N(S(=O)(=O)c1cc(-c3onc(C)c3C)ccc1C)CCO2 | – | inconclusive: 20.6 µM [inhibitor, single point]
C=CCn1c(C)cc(C(=O)COC(=O)COc2ccccc2C#N)c1C | – | inconclusive: 18.4 µM [activator, single point]
O=C(CNc1cccc([N+](=O)[O-])c1)N/N=C/c1ccc([N+](=O)[O-])o1 | – | inconclusive: 8.2 µM [inhibitor, partial curve]

For convenience, some entries already given.
Structure (SMILES) | activity change, negative = inhibition | Potency
O=C(c1ccc2oc(CCc3ccccc3)nc2c1)N1CCC(O)CC1 | – | inconclusive: 2.59 µM [activator, partial curve]
Cc1ccccc1NC(=O)NCc1ccc2c(c1)OCO2 | – | inconclusive: 20.6 µM [activator, single point]
C=CCOC(=O)C1=C[C@@H](c2coc3ccccc3c2=O)[C@H](CCCO)[C@@H](OCC)O1 | – | inconclusive: 18.3 µM [inhibitor, single point]

(further entries)

Structure (SMILES) | activity change, negative = inhibition | Potency
CC1(C)CC(=O)C2=C(C1)N(Cc1cccnc1)C(=O)C2(NC(=O)C1CC1)C(F)(F)F (stereo not drawn) | – | inconclusive: 29.1 µM [activator, single point]
O=C(OCCOc1cccc(Cl)c1)c1cc(S(=O)(=O)N2CCOCC2)ccc1F | inactive: -0.576% | –
COc1ccc(OC)c(CCNC(=O)c2ccc(CS(=O)Cc3ccc(Cl)cc3)o2)c1 (stereo not drawn) | inactive: -2.64% | –
O=Cc1ccc(-n2nncc2-c2ccc([N+](=O)[O-])cc2)cc1 | inactive: -2.93% | –
O=C1CCCCC1C(Nc1ccc(Br)cc1)c1ccccc1 (stereo not drawn) | inactive: 2.15% | –
Cc1ccc(N2CCN(C(=O)CCc3nc4ccccc4[nH]3)CC2)c(C)c1 | – | inconclusive: 18.4 µM [inhibitor, partial curve]
O=C(O)c1cccc(Nc2ncnc3ccc(Br)cc23)c1 | – | inconclusive: 6.51 µM [activator, full curve]
COc1cccc(N2CCN(Cc3nc(N)nc(N4CCCc5ccccc54)n3)CC2)c1 | – | inconclusive: 25.9 µM [inhibitor, single point]
CN1CCC(=NNC(=O)C(=O)Nc2ccc(F)cc2)CC1 | inconclusive: 25% [activator] | –
C/C(=C\c1ccccc1)C(=O)NCCN1CCOCC1 | inactive: 0.88% | –
CCOC(=O)c1c(C)[nH]c(C(=O)Cn2nnc(-c3ccccc3Cl)n2)c1C | – | inconclusive: 8.2 µM [activator, partial curve]
COC(=O)c1cc(NC(=O)CN(C)Cc2ccccc2)cc(C(=O)OC)c1 | – | inconclusive: 25.9 µM [inhibitor, partial curve, poor fit]
COc1ccc(C(=O)N2CCN(c3c(C)cccc3C)CC2)cc1OC | inactive: -0.581% | –
CCOC(=O)c1cc2c(=O)n3cccc(C)c3nc2n(Cc2ccco2)c1=NC(=O)c1cccnc1 | inactive: -9.16% | –
CC1=C(C(=O)Nc2ccc(C(=O)NCCCN3CCCCC3)cc2)SCCO1 | inactive: 25.5% | –
Cc1cc(C(=O)N2CCN(Cc3ccc4c(c3)OCO4)CC2)cs1 | – | inconclusive: 9.2 µM [inhibitor, partial curve, poor fit]
CN(C)S(=O)(=O)N1CCN(c2ccnc3cc(Cl)ccc23)CC1 | – | inconclusive: 29.1 µM [inhibitor, single point]
CC(C)C(NC(=O)c1ccccc1F)C(=O)NCc1ccccc1 (stereo not drawn) | inactive: -7.21% | –
COc1cc(C(=O)NC2CC3CCCC(C2)N3Cc2ccccc2)cc(OC)c1OC (stereo not drawn) | inactive: -2.14% | –
O=C1/C(=C/c2ccc(O)cc2)SC(=S)N1CC1CCCO1 (stereo not drawn) | – | inconclusive: 4.11 µM [activator, full curve, poor fit]
C=CCNC(=O)c1ccc(-c2ccc([N+](=O)[O-])cc2)o1 | – | inconclusive: 11.6 µM [activator, partial curve]

From PubChem BioAssay AID504467 (National Center for Advancing Translational Sciences (NCATS), 2011)
